# Primary screen of a compound library

Sequences of proteins named here, by UniProt entry; tags and fusion partners are left off.
UniProt E9BF75, entry or part of it: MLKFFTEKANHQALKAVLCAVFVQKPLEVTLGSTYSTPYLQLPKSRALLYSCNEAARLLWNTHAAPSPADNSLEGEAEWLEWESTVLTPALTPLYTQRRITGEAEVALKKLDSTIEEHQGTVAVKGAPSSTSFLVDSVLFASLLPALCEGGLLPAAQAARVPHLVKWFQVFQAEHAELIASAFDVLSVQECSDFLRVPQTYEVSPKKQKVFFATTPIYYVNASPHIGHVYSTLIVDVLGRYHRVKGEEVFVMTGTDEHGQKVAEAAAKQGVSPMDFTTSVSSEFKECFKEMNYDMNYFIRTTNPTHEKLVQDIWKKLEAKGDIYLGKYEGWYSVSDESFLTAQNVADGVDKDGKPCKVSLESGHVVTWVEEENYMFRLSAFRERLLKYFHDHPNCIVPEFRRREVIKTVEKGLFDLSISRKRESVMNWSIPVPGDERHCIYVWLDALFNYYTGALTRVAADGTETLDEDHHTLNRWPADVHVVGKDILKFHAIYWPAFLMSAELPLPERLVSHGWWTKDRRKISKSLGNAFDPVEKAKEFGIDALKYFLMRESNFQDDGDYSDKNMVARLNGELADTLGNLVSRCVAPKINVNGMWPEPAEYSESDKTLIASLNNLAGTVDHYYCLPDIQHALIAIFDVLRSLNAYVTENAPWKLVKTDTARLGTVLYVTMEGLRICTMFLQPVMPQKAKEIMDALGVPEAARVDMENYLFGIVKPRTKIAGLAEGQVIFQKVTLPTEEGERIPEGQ

The values are deposited in ChEMBL (CHEMBL3988442, “University of Dundee, Small-Polar-MMV Screening Library” (2021)).

LdMetRS: 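Methionyl-tRNA synthetase (putative), Leishmania donovani (UniProt E9BF75). Primary screen of methionyl-tRNA synthetase; the read-out is not stated. The test concentration is not given. The values are filed as inhibition. Size under these conditions: about 68,000 compounds, about 24 of them at 50% or above in at least one test.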
Mtb heat-shock: 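Assay on Mycobacterium tuberculosis, filed only as a heat shock assay from Cornell; the read-out is not stated. The concentration is filed as 10 mM, unlikely as a test dose, so the dose is not known. The record gives no direction; compounds that gave an IC50 in retests scored well above the rest, so higher reads as stronger inhibition. About 69,000 compounds were tested under these conditions; 1.4% (about 930) showed 50% or more at least once.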

All values are in %. The controls that fix the scale are not given in the record; negative values are as filed. This is an unselected part of the compounds tested. A dash means the value is not listed here; it may have been measured.

structure | LdMetRS | Mtb heat-shock
COCCCC(=O)Nc1[nH]nc(-c2ccncc2)c1C | 3.958 | -3.76
O=C(Nc1cccnc1)[C@H]1C[C@@H]2CCN(Cc3nccs3)C[C@@H]2O1 | 9.841 | -
O=C(CCN1C(=O)CCC1=O)Nc1ccc(Cl)cc1 | 11.14 | -20.75
CN1CCC(N(Cc2ccco2)S(=O)(=O)c2cc(Br)ccc2Br)CC1 | 9.021 | 1.311
O=C(c1ccc2[nH]ccc2c1)N1CCCCC1c1nc[nH]n1 (centres unmarked) | 9.946 | -12.57
c1cn(CCn2cnnc2)c(-c2cc3n(n2)CCCNC3)n1 | 16.44 | -21.09
O=C1[C@@H]2CCN(C3CCC3)C[C@@H]2OCCN1Cc1ccncc1 | 12.24 | -
CN1CCC(N(C)CCC(=O)N2CCC(OCc3ccccc3)CC2)C1 (centres unmarked) | 9.756 | 32.24
O=C1COC2(CCN(Cc3ccncc3)CC2)CN1c1ccccc1 | 18.4 | -
O=C(NC[C@H]1OC[C@@H]2CCN(C(=O)c3ccco3)C[C@@H]21)C1CC1 | 15.24 | -
Cc1ccccc1CN1C[C@@H](CN(C)CCO)[C@@H](CO)C1 | 8.933 | 11.93
Cc1ccc(N2CCC3(CCN(C(=O)c4ccnnc4)CC3)CC2)nn1.O=C(O)C(F)(F)F | - | -48.43
CN(C)c1ccc(C(=O)N2CCCC(n3cncn3)C2)nn1 (centres unmarked) | 14.25 | 2.411
Cc1csc(N2CCN(CC(=O)N3CCNC3=O)CC2C)n1 (centres unmarked) | 7.302 | -9.25
Cn1ccc(C(=O)NC2CCC23CCN(C(=O)c2ccnnc2)CC3)c1 (centres unmarked) | -1.587 | -27.34
CCC(C)(C)NC(=O)Nc1nnc(-c2ccccn2)s1 | 16.32 | 24.57
Cc1nn(C)c(Cl)c1S(=O)(=O)N(C)c1ccc(Cl)cn1 | 0.2688 | -4.265
COc1cccc(C(NCc2ccc(SC)cc2)c2nccn2C)c1 (centres unmarked) | 20 | 112.8
Cc1cc(C(=O)N2C[C@@H]3CCCO[C@@H]3[C@H](N(C)C(C)C)C2)c(C)[nH]1 | 4.255 | -
Cc1ccc(C(=O)N2CCN(CC(O)c3ccc(F)cc3)CC2)s1 (centres unmarked) | 18.37 | -0.8919
O=C(c1ccc2c(c1)[nH]c(=O)n2[C@H]1CC[C@H](O)CC1)N1CCOCC1 | 13.9 | 18.42
Cc1ccc(CN(CCCn2ccnc2)Cc2cccs2)s1 | 10.93 | -
CC1=Nc2c(c(=O)[nH]n2C2CCCC2)C(c2cccc(O)c2)S1 (centres unmarked) | 9.544 | 17.15
NC(=O)C1(c2cnccn2)CCCN1Cc1ccccn1 (centres unmarked) | 20.9 | -9.476
CS(=O)(=O)N[C@H]1CN(CCOCc2ccccc2)C[C@@H]1C1CC1 | 12.85 | 7.825
CC(C)CN1CCCn2nc(CNC(=O)NC(C)(C)C)cc2C1 | 14.38 | 8.264
O=C(NCCc1cc(F)ccc1F)NCC(O)C1CC1 (centres unmarked) | 3.714 | 0.5511
CNS(=O)(=O)c1cccc(C(C)NCc2cccc(C)c2C)c1 (centres unmarked) | 14.29 | 5.904
Cc1csc2cc(C(=O)NC3CCCC3)cnc12 | 7.5 | 14.56
c1ccc(-c2cc(CN3C[C@@H]4CC[C@H](C3)N(CC3CC3)C4)on2)cc1 | 23.12 | -
N#Cc1cnc2ccccc2c1N1CCN(C(=O)C2CCC2)CC1 | 6.72 | 2.086
COc1cc(CN2CC[C@@]3(CCCO3)[C@@H](O)C2)ccc1F | 16.78 | -1.571
CCOc1ccc(CC(=O)N2CCN(c3nccn3C)CC2)cc1 | 17.65 | -
Cc1cc(N2CCCC2c2cccnc2)nc(C)n1 (centres unmarked) | 7.784 | 2.87
COc1ccc(C(=O)CCc2nc(C3CC3)no2)cc1 | 15.49 | 29.47
O=C(CN1C[C@H]2C[C@H](OCc3ccccc3)C[C@H]2C1)N1CCOCC1 | 19.37 | -
[H][C@]12CCN(Cc3ccco3)[C@@]1([H])CC[C@H](COCC1CCOCC1)O2 | - | -14.98
NS(=O)(=O)c1ccc(CNCC(=O)NCc2ccc(Cl)cc2Cl)cc1 | 9.394 | -10.48
CCC(=O)N1CCCC1(C)c1nc(C)no1 (centres unmarked) | 10.87 | 22.05
O=C(Nc1cc(C(F)(F)F)c[nH]c1=O)c1ccco1 | 11.02 | 4.32
CN(C)C(=O)N1CC2(CCN(CC3CC3)CC2)c2cc(F)ccc21.O=C(O)C(F)(F)F | - | -18.7
COC[C@@H]1CC[C@H]2[C@H](CCN2S(=O)(=O)Cc2ccccc2)O1 | 16.06 | -
Cc1nc(S(=O)(=O)CCn2cccn2)n(C2CCCC2)c1C | 22.55 | -2.268
CCOc1ccc2[nH]c(=O)c(CN3CCCC3c3ccccn3)cc2c1 (centres unmarked) | 11.76 | 43.25
CCOCC1CN(C(=O)c2cccn2C)Cc2cnn(CC3CC3)c21 (centres unmarked) | 25.49 | -
[H][C@@]12CN(Cc3ccccn3)C[C@]1([H])CN(C(=O)Cc1ccccn1)C2 | - | -11.43
Cc1cnn(C2CCCN(C(=O)Cc3ccc(C)s3)C2)c1 (centres unmarked) | 11.67 | -18.45
[H][C@@]12CCN(Cc3cnn(C)c3)C[C@@]1([H])O[C@@H](c1nc(C3CC3)cs1)C2 | - | -10.94
CNc1cc(-c2ccncc2)ncn1 | 8.495 | -23.43
O=C(O)c1ccccc1-n1cnc(CN2CCCCCC2)c1 | 13.3 | 4.115
CCNC(=O)[C@@H]1C[C@@H](NC(=O)c2cnc[nH]c2=O)CN1Cc1ccsc1 | 13.76 | -18.46
CC(C)c1cnc(CN2CCCS2(=O)=O)o1 | 7.888 | -7.215
CN1CCCN(C(=O)c2csc(-c3ccc(C(F)(F)F)cc3)n2)CC1 | 7.886 | 5.882
COC(=O)CC1CCN(C(=O)c2ccc(C)cc2)CC1 | 5.497 | 21.14
CC(C)C1SCC(=O)Nc2c1cnn2C(C)C (centres unmarked) | 18.48 | 10.76
COc1ncnc2c1CCN(c1cc(C(F)(F)F)ncn1)CC2 | 6.276 | -2.859
CS(=O)(=O)NCCNC(=O)NC1(c2ccc(F)cc2)CCCC1 | 20.91 | 12.56
Cc1cccc(CNC(Cc2ccsc2)c2nc(C)c(C)s2)n1.Cl (centres unmarked) | - | 106.6
CCn1c(C2CCCN(Cc3ccnc4ccccc34)C2)nn(C)c1=O (centres unmarked) | 9.253 | 13.06
O=C(Cc1ccc2c(c1)CCCC2)NCCc1ccccn1 | 13.39 | -10.75
CC(C)C1=NOC2(CCN(S(C)(=O)=O)CC2)C1 | 7.429 | -4.423
CCc1cc(CN(C)C(=O)c2nnc(CN(C)C)o2)on1 | 21.87 | -27.4
O=C(c1ccco1)N1CCC2(CCC(=O)N2Cc2ccncc2)CC1 | 4.482 | -15.53
O=C1CCCc2[nH]c(=O)c(C(=O)N(Cc3ccsc3)C3CC3)cc21 | 11.75 | 9.932
Cc1cc(C)n(CC2CN(Cc3ccc(C(N)=O)cc3)CCO2)n1 (centres unmarked) | 13.35 | -15.91
CC(NC(=O)c1cc(N2CCNC2=O)ccc1F)c1ccc(F)cc1 (centres unmarked) | 11.54 | -19.02
CNc1nc(CNC(=O)Nc2cccc(-c3ncc(C)o3)c2)cs1 | 5.397 | 10.73
CN(Cc1nc(Cc2cccc(C(F)(F)F)c2)no1)C(C1CC1)C1CC1 | 15.93 | -17.18
OCC1CN(Cc2nc(C(F)(F)F)cs2)c2ccccc2O1 (centres unmarked) | 7.971 | -13.97
c1ccc(O[C@@H]2CC[C@H]3[C@H]2OCCN3Cc2ccsc2)nc1 | 8.148 | -
CCN1Cc2nccn2CC(COCc2csc(C)n2)C1.O=C(O)C(F)(F)F.O=C(O)C(F)(F)F (centres unmarked) | - | 34.39
CCc1c(C)sc2c1c(N)nc(=O)n2CCN1CCCCC1 | 8.924 | 16.75

For reference, 5 entries once more:

- COc1ncnc2c1CCN(c1cc(C(F)(F)F)ncn1)CC2 | LdMetRS: 6.276%; Mtb heat-shock: -2.859%
- c1ccc(O[C@@H]2CC[C@H]3[C@H]2OCCN3Cc2ccsc2)nc1 | LdMetRS: 8.148%
- Cc1cnn(C2CCCN(C(=O)Cc3ccc(C)s3)C2)c1 (centres unmarked) | LdMetRS: 11.67%; Mtb heat-shock: -18.45%
- N#Cc1cnc2ccccc2c1N1CCN(C(=O)C2CCC2)CC1 | LdMetRS: 6.72%; Mtb heat-shock: 2.086%
- O=C(O)c1ccccc1-n1cnc(CN2CCCCCC2)c1 | LdMetRS: 13.3%; Mtb heat-shock: 4.115%